Assay results from PMC5948213.
For at least one entry, the source does not settle the construct or the ends of the probe. Results from cells or extracts need not show a direct contact. Where a protein sequence is shown, tags need not be part of it.

Biological target: T1, DDB2 (DNA damage-binding protein 2), endogenous in HeLa nuclear extract (human (HeLa cells)) (UniProt Q92466)
T1 sequence (looked up, limits assumed): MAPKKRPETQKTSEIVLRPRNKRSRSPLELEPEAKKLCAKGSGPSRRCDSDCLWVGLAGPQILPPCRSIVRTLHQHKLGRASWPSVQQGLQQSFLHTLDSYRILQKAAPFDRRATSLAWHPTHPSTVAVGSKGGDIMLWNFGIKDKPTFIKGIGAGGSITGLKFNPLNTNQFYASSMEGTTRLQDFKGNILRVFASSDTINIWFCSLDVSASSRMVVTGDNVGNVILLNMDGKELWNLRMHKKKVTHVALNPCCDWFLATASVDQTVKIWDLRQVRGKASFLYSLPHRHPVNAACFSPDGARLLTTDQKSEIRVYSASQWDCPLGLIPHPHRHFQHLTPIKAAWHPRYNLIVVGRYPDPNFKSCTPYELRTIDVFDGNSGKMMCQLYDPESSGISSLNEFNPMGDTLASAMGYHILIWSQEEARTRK
Assay: EMSA with anti-DDB2 antibody
Details: 8 ug HeLa nuclear extract, 2 ug anti-DDB2 reduced the shifted band, 20 uL reaction per Li-Cor instructions (binding buffer not stated), nuclear extract lysis buffer 50 mM Tris-HCl pH 7.4, 150 mM NaCl, 1 mM EDTA, 1% Triton X-100, protein in an extract, label: IRDye700 5' on both strands

Sequence	binding result
AAATTGCTGAGCCAGTCACCTGTGTTCCAG (double strand) [BS1 probe (ALDH1A1 promoter, P1 region)]	binds
GCCAGCAGCCTGTACTCTGAGCC (double strand) [BS7 probe (ALDH1A1 promoter, P7 region)]	binds
